For one substance, binding results are on record in publication PMC5748785.

In the assay the target is T1, ZRT/IRT-like protein 14 (ZIP14), endogenously FLAG-tagged (human (endogenous in HepG2)) (UniProt Q15043).
T1 sequence: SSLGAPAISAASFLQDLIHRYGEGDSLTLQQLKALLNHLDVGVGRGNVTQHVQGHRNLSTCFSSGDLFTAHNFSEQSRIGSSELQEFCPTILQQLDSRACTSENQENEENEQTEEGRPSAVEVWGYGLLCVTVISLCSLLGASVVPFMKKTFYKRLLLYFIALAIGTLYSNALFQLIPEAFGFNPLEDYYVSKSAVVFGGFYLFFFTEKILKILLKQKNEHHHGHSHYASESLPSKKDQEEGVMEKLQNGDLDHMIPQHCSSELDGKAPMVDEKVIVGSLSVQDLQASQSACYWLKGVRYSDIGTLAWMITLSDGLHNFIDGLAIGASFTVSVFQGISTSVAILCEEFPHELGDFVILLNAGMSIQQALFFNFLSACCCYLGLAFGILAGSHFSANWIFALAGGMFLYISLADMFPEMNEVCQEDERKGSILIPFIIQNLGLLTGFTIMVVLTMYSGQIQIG
In words: co-IP; post-nuclear supernatant of HepG2-ZIP14-FLAG cells in NETT buffer (150 mM NaCl, 5 mM EDTA, 10 mM Tris, 1% Triton X-100, pH 7.4) incubated with anti-FLAG (M2) agarose beads 1 h at 4 °C; eluted with 0.5 mg/mL triple FLAG peptide; blot for p53; cells treated with negative control or p53-targeting siRNA for 48 h.

Results are given in words; binding and its absence hold for the method and conditions named. In cells and extracts the contact can be indirect. Some binding calls cover weakened binding; strength is not graded here. Sequences can lack the tags named with a protein.

Consider “tumor suppressor p53 (from UniProt P04637 1-393)”, for which the binding entry is listed as “binds”.
